Measured values taken from PubChem BioAssay AID743255 (National Center for Advancing Translational Sciences (NCATS), 2014).
In all, about 390,000 compounds went through this assay and about 910 (0.23%) were called active. This list was built around the results that the source calls inconclusive (neither active nor inactive); the mix of calls is not that of the screen. The call rests on the fitted dose curve; in most records, active means well fitted inhibition curve with a large enough effect; inconclusive means small, poorly fitted or top-dose-only effect; inactive means no such curve, though single readings can be large or run the other way. Potencies beside an inconclusive call are fits to weak or partial responses and may not hold up.

The chains behind the UniProt entries cited, without tags or fusion partners. Where a name states a change or a piece, a line headed by the entry shows the natural chain unless it says otherwise.
UniProt O94782: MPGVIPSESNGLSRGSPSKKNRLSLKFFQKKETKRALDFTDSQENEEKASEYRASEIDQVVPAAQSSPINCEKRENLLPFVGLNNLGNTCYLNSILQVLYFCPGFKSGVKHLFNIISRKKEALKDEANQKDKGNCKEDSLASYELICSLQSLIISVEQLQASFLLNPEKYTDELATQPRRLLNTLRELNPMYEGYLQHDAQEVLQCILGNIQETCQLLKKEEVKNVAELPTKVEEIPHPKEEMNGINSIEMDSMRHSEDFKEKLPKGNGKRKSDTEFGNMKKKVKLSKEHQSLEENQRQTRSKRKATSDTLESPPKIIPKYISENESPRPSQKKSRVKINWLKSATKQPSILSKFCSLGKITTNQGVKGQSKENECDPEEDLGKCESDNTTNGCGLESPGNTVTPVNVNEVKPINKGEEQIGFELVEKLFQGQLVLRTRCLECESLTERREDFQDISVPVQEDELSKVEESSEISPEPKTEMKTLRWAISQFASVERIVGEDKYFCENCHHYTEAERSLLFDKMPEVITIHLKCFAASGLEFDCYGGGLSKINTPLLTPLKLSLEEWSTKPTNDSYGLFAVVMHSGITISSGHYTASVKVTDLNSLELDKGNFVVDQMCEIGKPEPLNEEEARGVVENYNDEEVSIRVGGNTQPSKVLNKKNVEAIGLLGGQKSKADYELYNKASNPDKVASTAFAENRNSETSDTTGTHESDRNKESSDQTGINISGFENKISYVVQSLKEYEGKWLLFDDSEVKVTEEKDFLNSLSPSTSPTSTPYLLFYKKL

target: Ubiquitin carboxyl-terminal hydrolase 1 (Homo sapiens) (UniProt O94782); assay: Inhibitors of USP1/UAF1: Primary Screen; conditions: recombinant USP1/UAF1, Ub-Rhodamine cleavage fluorescence; activity change, negative = inhibition: at 57.1 µM (top of the series); further: nearly all actives have a fitted effect of over 60% in size
How it was run: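 USP1/UAF1 complex (1 nM) preincubated 15 min at room temperature with compound, then Ub-Rho substrate (150 nM final) added. Kinetic fluorescence at 480/540 nm over 6 reads at 60 s intervals; 50 mM HEPES pH 7.8, 0.5 mM EDTA, 0.1 mg/ml BSA, 1 mM TCEP, 0.01% Tween-20.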
On the % scale 0 is the no-effect control and ±100 the full control effect; potency means the concentration at half of the fitted maximal effect.

Potency, inactive:
c1ccc(N2CCN(Cc3ccc4c(c3)OCO4)CC2)nc1
COc1ccc(OC)c(NC(=O)CSc2nnc3ccc4ccccc4n23)c1
CCOn1c(=O)c(-c2ccc(C)cc2)[n+]([O-])c2ccccc21
NC(=O)CSc1ccc(S(=O)(=O)N2CCCCC2)cn1
O=S(=O)(Nc1nc2c(s1)CCCC2)c1ccc2ccccc2c1
CCCn1c2c(c(=N)c3c1CCC3)CCCC2
N#CC1=C(S)N=C(N)C(c2nc(-c3ccccc3)cs2)C12CCCCC2 (stereo unspecified)
COCCCNc1nc2c(c(=O)[nH]c(=O)n2C)n1CC(O)COc1ccccc1C (stereo unspecified)
CCOC(=O)CC(=O)CSc1ncnc2c1cnn2-c1ccccc1
COc1ccc(-c2cc(C(=O)OC(C)C(=O)c3ccccc3)c3cccc(Cl)c3n2)cc1 (stereo unspecified)
COC(=O)c1ccc(C(C(=O)NCc2ccccc2)N(Cc2ccco2)C(=O)c2cnccn2)cc1 (stereo unspecified)

For convenience, 2 of the compounds above.
Potency, inactive:
c1ccc(N2CCN(Cc3ccc4c(c3)OCO4)CC2)nc1
COc1ccc(OC)c(NC(=O)CSc2nnc3ccc4ccccc4n23)c1

Following part:

Potency, inconclusive:
O=C(Cc1ccc(S(=O)(=O)N2CCOCC2)s1)Nc1nc2c(s1)CCCC2 50.1 µM [inhibitor, partial curve, poor fit]
O=C1CCSC2(C(=O)N(Cc3ccccc3)c3ccccc32)N1c1ccccc1 (stereo unspecified) 0.0316 µM [inhibitor, full curve, poor fit]
COc1ccccc1OC(C)C(=O)Nc1ccc(-c2nc3ccccc3s2)cc1 (stereo unspecified) 56.2 µM [inhibitor, partial curve, poor fit]
CCN1CC2=C(OC(N)=C(C#N)C2c2cccs2)/C(=C\c2cccs2)C1 (stereo unspecified) 5.62 µM [inhibitor, full curve, poor fit]
COc1cc2cc(CNc3ccc(C)cc3)c(=O)n(CC(=O)Nc3ccc(F)cc3F)c2cc1OC 39.8 µM [inhibitor, partial curve]
Cc1ccc2nc(N3CCC(C(=O)N4CCN(c5cccc(Cl)c5)CC4)CC3)[nH]c2c1 7.08 µM [inhibitor, partial curve, poor fit]
CN1CCN(c2ccc3sc(-n4ccc5ccccc54)nc3c2)CC1 15.8 µM [inhibitor, partial curve, poor fit]
CN(C)c1nc2c(cnn2C)c(=O)[nH]1 3.98 µM [inhibitor, full curve, poor fit]
COc1ccc(OC)c(-c2csc(NC(=O)Cc3ccccc3)n2)c1 39.8 µM [inhibitor, partial curve, poor fit]

Activity change, negative = inhibition, inconclusive:
CCCc1nn(C(=O)c2ccccc2)c2c1C(=O)CC(C)(C)C2 -10.1% [inhibitor]
